{"source": "PubChem BioAssay AID1347423", "about": "(Functional Genomics Laboratory (NCATS/FGL), 2020)", "note": "About 210 (0.4%) of roughly 52,000 sequences were called active.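 The calls were made as follows: active = gene whose silencing raises cell survival under the drug, median off-target-corrected z-score across its silencing RNAs 2 or more; inactive = the rest.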 The list shows a part of the results."}
{"assay": "Resistance to Poly (ADP-Ribose) Polymerase inhibitor: Gene Identification via Genome-wide siRNA Screen", "settings": "mouse BRCA2 R2336H ES cells, olaparib, CellTiter-Glo viability; hits give high values", "how_it_was_run": "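Genome-wide siRNA screen (3 siRNAs/gene, 20 nM) in mouse ES cells carrying hypomorphic BRCA2 R2336H; olaparib 500 nM added 48 h post-transfection, CellTiter-Glo viability 72 h later. Normalized to plate-median negative control; MAD z-scores, gene median, seed-adjusted.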"}
{"sequence": "GCAGGCUAACCACAUUUGCTT against Zic4", "z-score": "inactive: 0.52"}
{"sequence": "GGGAGUCUAUGCUAUGGGUTT against 2810457M08Rik", "z-score": "inactive: 0.305"}
{"sequence": "GCUUGGUAGAGAUGUUAAATT against Ryr3", "z-score": "inactive: -0.81"}
{"sequence": "GGGUAGAAUCCAAGAAGCGTT against Hoxb3", "z-score": "inactive: -0.806"}
{"sequence": "GGACCAAAAACCACUGUUUTT against Olfr355", "z-score": "inactive: 1.59"}
{"sequence": "GGCUAUACCCUGAAAUAUUTT against Slitrk4", "z-score": "inactive: -0.0705"}
{"sequence": "GGAUCUGAAGGAAUACUUUTT against 2400010G15Rik", "z-score": "active: 2.14"}
{"sequence": "GGAUGUUGAAAUCAAUGGUTT against Cyp3a16", "z-score": "inactive: 1.07"}
{"sequence": "GGUCACUCAAAGAAUUAUGTT against Srr", "z-score": "inactive: -1.07"}
{"sequence": "GGCUGCUAGCUUAUAUAAGTT against Surb7", "z-score": "inactive: 1.46"}
{"sequence": "GGAAGAGAUCAUCCAGCUGTT against Mafg", "z-score": "inactive: 0.219"}
{"sequence": "GGCUUGAGGCCUUUCUCUATT against Zfpl1", "z-score": "inactive: 0.376"}
{"sequence": "GGAGGACAAUGAGGACGAUTT against Chrac1", "z-score": "inactive: -0.472"}
{"sequence": "GCCCAUAGUAAAUUUGUUATT against Zcchc12", "z-score": "inactive: -0.379"}
{"sequence": "GGACCUUUUAUCUGAAAUGTT against Papln", "z-score": "inactive: 0.934"}
{"sequence": "GACAAAAUGGGUUUUACCUTT against Olfr668", "z-score": "inactive: -1.24"}
{"sequence": "GGGAUGGUGGAGAGAAAGATT against 2700067E09Rik", "z-score": "inactive: -0.607"}
{"sequence": "CCUCAAGUACUGUAAUCACTT against Atf2", "z-score": "inactive: -0.235"}
{"sequence": "GGCUGAACUGAUCCUGUACTT against Kcnh3", "z-score": "inactive: -0.436"}
{"sequence": "GGGACAUUAAACUAUUUCATT against Chchd3", "z-score": "inactive: -0.0615"}
{"sequence": "GCACAACUCCUACAUGGUCTT against 4931419K03Rik", "z-score": "inactive: -0.599"}
{"sequence": "GCUACAGCCGAGAGAAAUGTT against D14Ertd226e", "z-score": "inactive: 2.92"}
{"sequence": "CGAUGGACGAGAAAUAUUUTT against 1700030K09Rik", "z-score": "inactive: -0.892"}
{"sequence": "GAGUUCAAGAAUGCUGUUUTT against Usp43", "z-score": "inactive: 3.32"}
{"sequence": "GGAUCAUGUUAAACAAAGATT against Ccne1", "z-score": "inactive: -0.291"}
{"sequence": "GGAGGAACAAUAAACUGUATT against Pet2", "z-score": "inactive: 0.364"}
{"sequence": "GGUCUUGACCACACGAUGUTT against BC025833", "z-score": "inactive: -0.000572"}
{"sequence": "CCUUAACCUCCACUUUAUATT against Sdc2", "z-score": "inactive: 0.0517"}
{"sequence": "GCCUUUCACUAUUGACAACTT against Aurkb", "z-score": "inactive: -0.463"}
{"sequence": "CUCACAAGUCAAAGCCUACTT against 6330583I20Rik", "z-score": "inactive: 0.0818"}
{"sequence": "GGAAAAGACGGGAGAUUUGTT against Mbldc1", "z-score": "inactive: 0.0178"}
{"sequence": "GGCAUGAUUGUUUUGAUCCTT against Olfr1500", "z-score": "inactive: -0.031"}
{"sequence": "GGACGAUCGAUCGUUAACUTT against Ier5", "z-score": "inactive: 1.3"}
{"sequence": "GCGUAUUACAGACAGUGACTT against Izumo1", "z-score": "inactive: 0.518"}
{"sequence": "GGCAUGUAGAGGACUAAUGTT against Cldn10", "z-score": "inactive: 0.827"}
{"sequence": "GGAUCUUUUUGUUUUUCCUTT against Commd8", "z-score": "inactive: -0.283"}
{"sequence": "CGAUAUUUAUAUCCACCUATT against 6430514L14Rik", "z-score": "inactive: -0.388"}
{"sequence": "GGGCCACAGGAUCUCACUUTT against 1700009J07Rik", "z-score": "inactive: -0.418"}
{"sequence": "GCUUGGUGAGACUUUAACCTT against Nhlh2", "z-score": "inactive: 0.765"}
{"sequence": "GGUGAAGAGAUUGACGUGGTT against Lmyc1", "z-score": "inactive: 1.62"}
{"sequence": "GGAUUUUUACAUUGAGUCUTT against Cdca5", "z-score": "inactive: -0.759"}
{"sequence": "CCAGAAACUUAACAACGACTT against Bpgm", "z-score": "inactive: -0.0201"}
{"sequence": "CCUACUCAAGUACCCUAAATT against Zfp59", "z-score": "inactive: -1.12"}
{"sequence": "GCUGAUGGCGUACAUUGAATT against Fut10", "z-score": "inactive: -1.46"}
{"sequence": "GCCGUCUACCCUGAUAACATT against Cp", "z-score": "inactive: -0.898"}
{"sequence": "GGUAGAAGUGAAAUAUUCUTT against Ndufaf1", "z-score": "inactive: 2.23"}
{"sequence": "GGGCAACGUAUUCACAUUATT against Manbal", "z-score": "inactive: -1.41"}
{"sequence": "GGAUUCAAUUUUUUGCCAUTT against 2610029G23Rik", "z-score": "inactive: 0.845"}
{"sequence": "GGACAGACUACACUUCUAUTT against BC008103", "z-score": "inactive: 2.95"}
{"sequence": "GGAGUUGCUGUGUAUGACATT against Hspa1a", "z-score": "inactive: -1.35"}
{"sequence": "GGAAAUAGACGCAAAAAUATT against 4833446K15Rik", "z-score": "inactive: -0.788"}
{"sequence": "GGACUUGGUGACUUACUUCTT against Smpdl3b", "z-score": "inactive: 0.275"}
{"sequence": "GGUAAAAGCUCAGAUUCACTT against Ncoa4", "z-score": "inactive: 2.39"}
{"sequence": "GGAACUUUAUAAGGACUAUTT against Xlr4", "z-score": "inactive: -0.738"}
{"sequence": "CCAUGUCUAUUCAAAAAGCTT against Wdr6", "z-score": "inactive: 0.546"}
{"sequence": "CCCGCUACAACAACCUGAUTT against Chrnb4", "z-score": "inactive: -0.641"}
{"sequence": "GGACAGACAAAUACAAGAGTT against 4930403O06Rik", "z-score": "inactive: 0.856"}
{"sequence": "GUACAUGCCCUUUGAACAUTT against Clcn1", "z-score": "inactive: -0.975"}
{"sequence": "GGAAGAAACCUACGUUGAATT against 1700007D05Rik", "z-score": "inactive: 0.717"}
{"sequence": "GGAGAAUUUAGAGCUACCATT against Apg10l", "z-score": "inactive: 2.02"}
{"sequence": "GGGAGAGACCCAAAAAGGGTT against C230050L11", "z-score": "inactive: 0.827"}
{"sequence": "GGCAGAGAUAACCUUUAAATT against Sphk1", "z-score": "inactive: 0.574"}
{"sequence": "GCAGGGAUCUGCUAAGCUATT against Hey1", "z-score": "inactive: -0.113"}
{"sequence": "GGAAUGUACUAGACCCGAGTT against Gstm2", "z-score": "inactive: 1.13"}
{"sequence": "GGACGACAGCAAAGGGAAGTT against Tnnc1", "z-score": "inactive: 2.96"}
{"sequence": "GCUACUAUUGUGUUCUGAATT against Drd1a", "z-score": "inactive: -0.386"}
{"sequence": "CGGCAAAAUUAGCUAUUCATT against Exosc4", "z-score": "inactive: -0.934"}
{"sequence": "CGGAGAGAUGGUGUGAACATT against Ik", "z-score": "inactive: -3.52"}
{"sequence": "GGAAGAAGUGAUAAAGAGATT against Nts", "z-score": "inactive: 0.777"}
{"sequence": "GGACAGUUGUCAUUGGCAUTT against E330036I19Rik", "z-score": "inactive: -0.898"}
{"sequence": "CCGUUCACUAAUAAAAGGUTT against BC052040", "z-score": "inactive: 2.07"}
{"sequence": "GGAGAGGAAUCAAGUGGUGTT against Lig1", "z-score": "inactive: 0.424"}
{"sequence": "GCCUCAAGUAAAGUGGCUGTT against Furin", "z-score": "inactive: 0.0509"}
{"sequence": "GGUAUAAAGAACUCUGUCATT against 5730599I05Rik", "z-score": "inactive: -1.08"}
{"sequence": "CGAACUAGCAAUGUUUACUTT against Ptpn13", "z-score": "inactive: -0.567"}
{"sequence": "CCGGUAAUGAGUUCAAGUGTT against Arsa", "z-score": "inactive: 0.348"}
{"sequence": "GCCGAUGUAUGGAGUUUUCTT against Mei1", "z-score": "inactive: 0.783"}
{"sequence": "GGCACAUAGCCAUACCAGATT against 1110064L07Rik", "z-score": "inactive: 0.729"}
{"sequence": "GGAUUGGCAAGCAGCUAACTT against Dnase2a", "z-score": "inactive: 1.44"}
{"sequence": "GGACACUAGUCGGCUGCUUTT against 1500034E06Rik", "z-score": "inactive: 1.12"}
{"sequence": "GCCAUUAUGCCGACGUGGATT against Slc38a2", "z-score": "inactive: 0.824"}
{"sequence": "GCAUUAGGAAUUCAAUUAGTT against Adamts1", "z-score": "inactive: -0.418"}
{"sequence": "GCGACAACAUGCUUAGCACTT against Chi3l1", "z-score": "inactive: -0.747"}
{"sequence": "CCCGAAGUAGUCUUUAUCGTT against Pafah1b3", "z-score": "inactive: 0.796"}
{"sequence": "GGCAGUUUCUUCAGUUCUUTT against 9030408N13Rik", "z-score": "inactive: -2.2"}
{"sequence": "GGCAAAGAACAUCAAGCAATT against Rutbc3", "z-score": "inactive: 1.94"}
{"sequence": "CGGGUGUUUGAAUGAUUUCTT against Mrps27", "z-score": "inactive: 0.0984"}
{"sequence": "CGACCAAAAUCAAAACAGCTT against Defb12", "z-score": "inactive: 2.02"}
{"sequence": "GCCACUGUGUGGAAUAAAUTT against Gif", "z-score": "inactive: 1.28"}
{"sequence": "GCAUAUUGCCUACUUCUUCTT against Olfr982", "z-score": "inactive: -0.152"}
{"sequence": "GGUGAGAAGCCUUAUCAUUTT against Klf2", "z-score": "inactive: 3.01"}
{"sequence": "GGUGCCCACUAACUUAGAATT against Tbx21", "z-score": "inactive: 0.288"}
{"sequence": "GCUAAAGAUUGACAAAGCUTT against Uqcrc2", "z-score": "inactive: 0.381"}
{"sequence": "GGUGAUACACUGUAAUCUGTT against Msra", "z-score": "inactive: 0.455"}
{"sequence": "GGGCAUCGUUUUCAUCUCATT against Wdr11", "z-score": "inactive: 0.349"}
{"sequence": "GGAAGUGGCGAGGUUCUAUTT against Folr1", "z-score": "inactive: -1.6"}
{"sequence": "GGUUCUGGAAGUGAAGGUGTT against Prg2", "z-score": "inactive: -2.23"}
{"sequence": "CCCAAGAAUUGGAUUCCAGTT against Lta", "z-score": "inactive: 0.88"}
{"sequence": "GCUAUCAACAAUCUUCGAATT against Azi1", "z-score": "inactive: 0.37"}
{"sequence": "GGUGUGGUAUGCUUUCUCCTT against Ddx11", "z-score": "inactive: 1.4"}
{"sequence": "GCACUGAAGCCUAGCUGUUTT against BC051142", "z-score": "inactive: -1.83"}
{"sequence": "GGAAUAUCCUGACUUCUGATT against 4931431C16Rik", "z-score": "inactive: 0.162"}
{"sequence": "GGAGUACAUUGUGAAUGUUTT against Tnr", "z-score": "inactive: -0.923"}
{"sequence": "CCAUGCGGUUGUUCAAGUATT against Taf7l", "z-score": "inactive: 0.862"}
{"sequence": "GGACUUCUACUCAGAAUUUTT against Nisch", "z-score": "inactive: 1.11"}
